Measurements: PMC3534021, “Structure of the TPR Domain of AIP: Lack of Client Protein Interaction with the C-Terminal α-7 Helix of the TPR Domain of AIP Is Sufficient for Pituitary Adenoma Predisposition” (PLoS ONE, 2012)

System: AIP TPR-domain E192R mutant
Assay: Isothermal titration calorimetry, E192R AIP TPR-domain
Format: binding, human
Settings: ITC
Method: The TPR domain (residues 166–330) of human AIP was expressed as a PreScission cleavable His-tagged protein from pTWO-E (pET-17b derived; personal communication, A. W. Oliver, Sussex University). The TPR domain was purified by talon-affinity chromatography (Clontech, Oxford, UK), then concentrated and desalted on a HIPrep 26/10 desalting column equilibrated in 20 mM Tris pH 7.5 containing 1 mM EDTA. The sample was then cleaved overnight with GST-tagged PreScision protease. The cleaved protein was subsequently passed through a GST column equilibrated in 20 mM Tris pH 7.5, 1 mM EDTA and 150 mM NaCl and then through a second Talon column to remove any remaining uncleaved protein. The flow through was then concentrated and subjected to superdex 75HR gel-filtration chromatography equilibrated in 20 mM Tris pH 7.5, 1 mM EDTA, 1 mM DTT and 500 mM NaCl. Pure TPR domain were concentrated and then desalted on a HIPrep 26/10 column equilibrated in 20 mM Tris pH 7.5 containing 1 mM EDTA. The protein was stored frozen at 2 mg ml^−1.
The heat of interaction was measured on an ITC200 microcalorimeter (Microcal), with a cell volume of 200 µL, under the same buffer conditions (20 mM Tris, pH 7.5, containing 5 mM NaCl) at 30°C. Twenty 1.9 µL aliquots of AIP TPR-domain at 350 µM were injected into 30 µM of human HSP90β. For peptide interactions twenty 1.9 µL aliquots of peptide ranging from 350 to 600 µM were injected into 30 µM of AIP TPR-domain. Heats of dilution were determined in a separate experiment by diluting protein or peptide into buffer, and the corrected data were fitted using a non-linear least-squares curve-fitting algorithm (Microcal Origin) with three floating variables: stoichiometry, binding constant and change in enthalpy of interaction. ATPase assays were previously described [44]–[46].

## FL-hHSP90β: full-length human HSP90β chaperone protein
  ΔH: -4.114 kcal/mol
  ΔS: 9.11 Cal/mol/deg
AIP-TPR-E192R:HSP90β
  N (stoichiometry): 0.47
